Experimental data reported in US20220259297A1.
These are yes or no findings as the source states them, for the method shown. Some entries that bind do so weakly or less than the wild type.

Chains of the proteins cited; added tags and fusions are not shown. Lines headed by an entry give the natural chain unless they say otherwise; changes in a name come on top.
UniProt P36896: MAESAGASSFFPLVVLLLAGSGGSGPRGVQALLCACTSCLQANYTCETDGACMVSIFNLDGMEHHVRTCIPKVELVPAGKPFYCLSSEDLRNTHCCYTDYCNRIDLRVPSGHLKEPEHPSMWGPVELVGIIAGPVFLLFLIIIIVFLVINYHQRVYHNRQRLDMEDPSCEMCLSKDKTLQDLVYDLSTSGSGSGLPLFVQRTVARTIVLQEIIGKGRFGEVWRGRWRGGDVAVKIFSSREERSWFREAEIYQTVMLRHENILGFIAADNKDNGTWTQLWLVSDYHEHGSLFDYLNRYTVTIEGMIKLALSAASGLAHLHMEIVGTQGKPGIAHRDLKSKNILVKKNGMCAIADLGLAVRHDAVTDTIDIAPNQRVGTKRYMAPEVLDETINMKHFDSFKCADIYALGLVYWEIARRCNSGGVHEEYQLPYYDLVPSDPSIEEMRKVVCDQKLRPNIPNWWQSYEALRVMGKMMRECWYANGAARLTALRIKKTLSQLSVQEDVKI
UniProt P27037: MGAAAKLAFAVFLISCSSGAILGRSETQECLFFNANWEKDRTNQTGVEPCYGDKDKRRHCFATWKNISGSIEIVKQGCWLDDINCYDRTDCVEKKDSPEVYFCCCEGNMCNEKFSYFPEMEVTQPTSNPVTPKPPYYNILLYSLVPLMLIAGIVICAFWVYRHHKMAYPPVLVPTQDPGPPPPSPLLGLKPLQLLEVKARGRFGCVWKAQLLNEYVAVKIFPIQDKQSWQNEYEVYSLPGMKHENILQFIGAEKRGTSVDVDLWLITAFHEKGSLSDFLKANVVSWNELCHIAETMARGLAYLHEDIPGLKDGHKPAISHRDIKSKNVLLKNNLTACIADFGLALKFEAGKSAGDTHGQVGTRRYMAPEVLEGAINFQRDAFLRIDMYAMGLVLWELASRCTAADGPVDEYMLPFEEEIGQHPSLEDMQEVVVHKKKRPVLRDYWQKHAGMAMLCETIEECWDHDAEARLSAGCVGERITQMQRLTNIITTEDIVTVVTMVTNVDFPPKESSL

Assays:
GDF11 [1] = biological target: T1, GDF11 (UniProt O95390); assay: Biacore (SPR), ligands ranked by off-rate koff
T1 sequence (looked up): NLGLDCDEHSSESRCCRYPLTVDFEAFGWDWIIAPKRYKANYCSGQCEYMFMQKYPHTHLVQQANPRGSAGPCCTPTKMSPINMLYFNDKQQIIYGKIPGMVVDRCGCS

GDF3 = biological target: T2, GDF3 (UniProt Q9NR23); assay: Biacore (SPR), ligands ranked by off-rate koff
T2 sequence (looked up): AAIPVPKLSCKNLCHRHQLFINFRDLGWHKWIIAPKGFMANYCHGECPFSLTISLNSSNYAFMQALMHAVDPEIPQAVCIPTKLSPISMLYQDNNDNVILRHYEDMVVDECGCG

GDF8 = biological target: T3, GDF8 (UniProt O14793); assay: Biacore (SPR), ligands ranked by off-rate koff
T3 sequence (looked up): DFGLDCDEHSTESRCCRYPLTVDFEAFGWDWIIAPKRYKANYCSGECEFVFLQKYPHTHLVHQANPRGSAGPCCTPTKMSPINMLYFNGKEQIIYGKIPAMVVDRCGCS

activin B [2] = biological target: T4, activin B (UniProt P09529); assay: Biacore (SPR), ligands ranked by off-rate koff
T4 sequence (looked up): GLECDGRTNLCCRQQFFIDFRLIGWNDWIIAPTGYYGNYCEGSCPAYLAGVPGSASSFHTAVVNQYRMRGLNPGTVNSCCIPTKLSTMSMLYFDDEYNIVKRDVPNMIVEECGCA

activin B [3] = biological target: T4, activin B; assay: SPR (Biacore), FIG. 49
GDF11 [4] = biological target: T1, GDF11; assay: SPR (Biacore), FIG. 49
BMP10 [5] = biological target: T5, BMP10 (UniProt O95393); assay: Biacore (SPR), ligands ranked by off-rate koff
T5 sequence (looked up): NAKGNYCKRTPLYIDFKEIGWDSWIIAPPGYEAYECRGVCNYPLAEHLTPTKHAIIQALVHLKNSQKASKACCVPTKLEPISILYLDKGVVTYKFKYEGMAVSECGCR

BMP15 [6] = biological target: T6, BMP15 (UniProt O95972); assay: Biacore (SPR), ligands ranked by off-rate koff
T6 sequence (looked up): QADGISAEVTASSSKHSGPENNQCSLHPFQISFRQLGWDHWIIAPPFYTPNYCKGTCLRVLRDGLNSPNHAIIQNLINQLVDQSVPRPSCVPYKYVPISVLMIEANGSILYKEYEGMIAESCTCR

BMP10 [7] = biological target: T5, BMP10; assay: SPR (Biacore), FIG. 53
BMP15 [8] = biological target: T6, BMP15; assay: SPR (Biacore), FIG. 53
activin B [9] = biological target: T4, activin B; assay: SPR (Biacore), FIG. 53

Measured: binding

ALK4-Fc homodimer (from UniProt P36896 24-126) (Fc fusion)
binds: GDF11 [1]

ALK4-Fc:ActRIIA-Fc heterodimer (from UniProt P36896 24-126; P27037 20-135) (Fc fusion)
binds: GDF3 | GDF8 | activin B [2] | GDF11 [1] | activin B [3] | GDF11 [4]

ALK4-Fc:BMPRII-Fc heterodimer (from UniProt P36896 24-126; O35607 27-150) (Fc fusion)
binds: BMP10 [5] | BMP15 [6] | activin B [2] | BMP10 [7] | BMP15 [8] | activin B [9]

ActRIIA-Fc homodimer (from UniProt P27037 20-135) (Fc fusion)
binds: GDF3 | BMP10 [5] | activin B [2] | GDF11 [1] | activin B [3]
